Reference: paper PMC3903547

Molecular target: Cameo1 in pBiFC-VC155 (Bombyx mori) (UniProt D2KXB2)
Test: split reporter; Cameo1 or Cameo2 in pBiFC-VC155 and CBP or cbp in pBiFC-VN173, co-transfected into HEK293 cells; cells fixed 24 h after transfection; yellow fluorescence seen by fluorescence microscopy

B1: Carotenoid-binding protein (CBP) in pBiFC-VN173 (protein, UniProt Q8MYA9 2-297)
chain: ADSTSKSAPKINEETAERQLNELINVDSHDEYENRLSRISSALANWMKSVFNMDTTTKEEFDPVWLSIDEYKSQANESMANAWRIITLPNWTVEKRGTVRGDVVESRKVEGFGKVYRFTGVVNCPARFLYEEFKNNLTKLPEWNPTILKCEIIKEIGDGVDLSYQVTAGGGRGIITPRDFVILRRTALLSREGRVVDDNPHGYISSGVSVQVPGYPPLKEMVRGHNKVGCWYLQPRTVQTPGGKIEDQALFQWLMCCDLKGKIPQFVLDVAFATVMLDYIVHVRKFVAEAKARAEI
- binding: binds

These are yes or no findings as the source states them, for the method shown. In cells and extracts the contact can be indirect. Binding calls can cover weak binding; strength is not graded here.
